This note sets out measurements from patent US20120027793A1.

Sequences of proteins named here, by UniProt entry; tags and fusion partners are left off. A change or cut given only in a name is not applied to a line headed by its entry.
UniProt P14434: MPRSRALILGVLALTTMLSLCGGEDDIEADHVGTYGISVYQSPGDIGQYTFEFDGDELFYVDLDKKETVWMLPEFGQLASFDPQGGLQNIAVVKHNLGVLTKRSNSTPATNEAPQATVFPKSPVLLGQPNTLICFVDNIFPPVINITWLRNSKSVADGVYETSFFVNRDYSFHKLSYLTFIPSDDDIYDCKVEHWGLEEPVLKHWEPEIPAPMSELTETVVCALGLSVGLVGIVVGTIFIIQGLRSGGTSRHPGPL
UniProt P14483: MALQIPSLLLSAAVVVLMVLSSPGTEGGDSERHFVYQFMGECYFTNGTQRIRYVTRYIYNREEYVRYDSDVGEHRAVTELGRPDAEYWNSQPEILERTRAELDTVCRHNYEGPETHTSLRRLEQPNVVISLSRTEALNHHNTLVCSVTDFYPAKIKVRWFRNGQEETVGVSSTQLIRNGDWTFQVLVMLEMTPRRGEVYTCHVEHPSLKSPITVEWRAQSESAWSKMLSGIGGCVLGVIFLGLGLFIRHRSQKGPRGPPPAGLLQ

No constants are given. Whether binding was seen depends on the method and setting. Binding seen in cells or lysates may run through a third protein. Some entries that bind do so weakly or less than the wild type.

Test [1] concerns the target MHC class II I-A^b (mouse (C57BL/6)) (UniProt P14434+P14483). The test is described as follows: acid elution from immunoaffinity-purified I-Ab of C. muridarum-infected dendritic cells, LC-MS/MS.
For test [2], the target named is MHC class I H-2K^b (mouse (C57BL/6)). The test is described as follows: acid elution from immunoaffinity-purified H-2Kb of C. muridarum-infected dendritic cells, LC-MS/MS.

B1: Polymorphic membrane protein G1 family peptide … (SEQ ID NO: 27) (peptide)
peptide: SPIYVDPAAAGGQPPA
Turning to B1, the binding entry in test [1] is recorded as “binds”.

B2: Ribosomal protein L6 peptide … (SEQ ID NO: 22) (peptide)
peptide: KGNEVFVSPAAHIIDRPG
Take B2: in test [1], the binding entry is reported as “binds”.

B3: Amino acid permease peptide SSLFLVKL (SEQ ID NO: 19) (peptide)
peptide: SSLFLVKL
Consider B3, for which the binding entry in test [2] is listed as “binds”.

B4: 3-oxoacyl-(acyl carrier protein) reductase peptide … (SEQ ID NO: 24) (peptide)
peptide: SPGQTNYAAAKAGIIG
Take B4: the binding result in test [1] is “binds”.

B5: Ribosomal protein L6 peptide … (SEQ ID NO: 23) (peptide)
peptide: EVFVSPAAHIIDRPG
In the case of B5, the binding entry in test [1] is “binds”.

B6: Polymorphic membrane protein G1 family peptide … (SEQ ID NO: 28) (peptide)
peptide: ASPIYVDPAAAGGQPPA
Consider B6, for which the binding entry in test [1] is on record as “binds”.

B7: Ribosomal protein L6 peptide … (SEQ ID NO: 21) (peptide)
peptide: GNEVFVSPAAHIIDRPG
B7: the binding result in test [1] is “binds”.

B8: Ribosomal protein L6 peptide … (SEQ ID NO: 20) (peptide)
peptide: GNEVFVSPAAHIID
Turning to B8, the binding entry in test [1] is given as “binds”.

B9: 3-oxoacyl-(acyl carrier protein) reductase peptide … (SEQ ID NO: 25) (peptide)
peptide: SPGQTNYAAAKAGIIGFS
Consider B9, for which the binding entry in test [1] is listed as “binds”.

B10: Glyceraldehyde 3-phosphate dehydrogenase peptide … (SEQ ID NO: 32) (peptide)
peptide: MTTVHAATATQSVVD
B10: the binding entry in test [1] is “binds”.
